Measured values reported in the supplement of paper PMC3334620.
The full ranking holds about 33,000 sequences; the median of “E-score (-0.5 to 0.5)” is about -8e-05, and the highest 2% start at about 0.23. This is one part of the list.

Biological target: T1, Nrg2 (UniProt P38082)
T1 sequence: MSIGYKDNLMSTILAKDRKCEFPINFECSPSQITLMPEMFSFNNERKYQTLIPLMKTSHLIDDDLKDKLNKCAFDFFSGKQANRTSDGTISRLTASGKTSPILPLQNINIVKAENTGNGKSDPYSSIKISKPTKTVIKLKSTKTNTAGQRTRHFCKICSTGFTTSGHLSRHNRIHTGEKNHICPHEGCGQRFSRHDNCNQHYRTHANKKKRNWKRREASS
Assay: PBM E-score (8-mer binding enrichment) (E-score (-0.5 to 0.5)); higher = stronger / more preferred TF binding
Settings: protein concentration: 100 nM; construct: GST-full length
How it was run: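 Using PURExpress in vitro transcription/translation, GST-tagged yeast transcription factors were made in full-length or DNA-binding-domain form. These were applied at about 100-200 nM to double-stranded universal all-10-mer Agilent arrays, and bound protein was detected with fluorescent anti-GST. Scans were normalised with masliner before the Universal PBM Analysis Suite assigned E-scores to ungapped eight-base words pooled with their reverse complements.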

Row | Sequence | PBM E-score
1 | ATCTCCTC | 0.0366
2 | CTACGCTC | -0.069
3 | AGTAGGGA | -0.0186
4 | ACGGGGGG | -0.417
5 | AATATTCC | 0.233
6 | AATGAACC | 0.00986
7 | ACCACCGT | -0.109
8 | CGGCGCAC | 0.0314
9 | CCGAATGA | 0.00868
10 | AGCCTCAC | -0.0991
11 | CCGTCGAG | 0.124
12 | GCGCCCCC | -0.295
13 | ATTTTGCG | 0.107
14 | AAATAATT | 0.243
15 | AAGGGTTA | 0.076
16 | AATACTGT | 0.161
17 | AACCTGAT | 0.0634
18 | CACCGGCG | 0.115
19 | GGCAGAGA | 0.0271
20 | AATATAAG | 0.258
21 | CCAGCTTA | -0.0886
22 | TGACGCAA | 0.157
23 | AACTGCAT | 0.232
24 | CAATCCTC | -0.1
25 | AATATGCT | 0.017

Row | Sequence | PBM E-score
26 | ACGAATCA | 0.162
27 | CGGCCATC | -0.277
28 | ATGGAGCC | -0.221
29 | TAATGTGA | 0.112
30 | AGAAGTTG | -0.0165
31 | AGTGGGGG | -0.399
32 | GTAGTTCA | -0.0407
33 | CAAGGCAC | -0.00388
34 | CTGTGGAC | -0.00566
35 | CCCCGGGC | -0.242
36 | GTACCTGA | 0.0223
37 | TATAAGCA | 0.0871
38 | AAGCACTG | 0.064
39 | AACTCCTA | 0.0887
40 | AGATATTG | 0.129
41 | GAGGACTC | -0.292
42 | CCGTTTGC | -0.0133
43 | AGACGCAG | -0.069
44 | CTTACCGC | -0.0617
45 | CGTGAGGA | -0.0766
46 | ACTCAACA | 0.187
47 | GGACCGCA | -0.0478
48 | CTACCAAC | -0.0572
49 | AGTTACCC | -0.0644
50 | GACGCTGC | -0.136

Row | Sequence | PBM E-score
51 | GCCAATGA | -0.145
52 | CAGTTTTA | 0.0445
53 | ACTAAAGA | -0.0154
54 | ACCCTAGA | 0.284
55 | CCAGGTAG | -0.12
56 | CAGTCCAC | -0.0861
57 | CTTCAAAG | -0.225
58 | ATCAGGAT | 0.0778
59 | GCTTATCC | -0.0275
60 | CAATTCGA | -0.135
61 | ATGTACAG | -0.0816
62 | CGACGTAG | -0.188
63 | ATCCGGAT | 0.0929
64 | ATGTCCAG | -0.0462
65 | AGAGATGC | 0.0246
66 | AGAATTTC | -0.0868
67 | ATCCGGTA | -0.0738
68 | ACAACCCT | 0.188
69 | ATTTGAAA | 0.142
70 | GGATCGAC | 0.0407
71 | ACCGTACG | -0.114
72 | CCAAAGGA | -0.0689
73 | ACATCAAA | 0.00799
74 | ACACCAAT | 0.183
75 | CCTCCGGC | -0.151

Part of the list above, with tabs.
Row	Sequence	PBM E-score
53	ACTAAAGA	-0.0154
57	CTTCAAAG	-0.225
58	ATCAGGAT	0.0778
64	ATGTCCAG	-0.0462
70	GGATCGAC	0.0407
73	ACATCAAA	0.00799
75	CCTCCGGC	-0.151

More entries.

Row | Sequence | PBM E-score
76 | ACCAGGAT | 0.0294
77 | TCCTGACA | 0.091
78 | CTATATGA | -0.0356
79 | CCTCTACG | -0.135
80 | GCAGATCA | -0.0576
81 | AATTACAC | 0.0164
82 | ATCGTATA | 0.0584
83 | CAAGTGCA | -0.201
84 | AAACCAAC | -0.0262
85 | ATTATAGG | 0.123
86 | ATGGCGGC | 0.0735
87 | ACTGACCA | -0.091
88 | CAATAAGG | -0.0927
89 | AAACCTAT | -0.0961
90 | GCAATTAC | 0.104
91 | TAATCAAA | 0.207
92 | AGGCAACA | -0.168
93 | TCGCACAA | 0.108
94 | AGGCGGAA | -0.0108
95 | GGGCGGTA | -0.192
96 | ATGTAGGC | -0.0515
97 | ATACATTG | 0.129
98 | GCGGACTA | -0.0963
99 | CGAATTAG | 0.186
100 | GGGTATAC | 0.0628

Row | Sequence | PBM E-score
101 | CACCTTCG | -0.151
102 | TCGCTGAA | 0.0436
103 | CGCACCAC | 0.17
104 | CTACTTCA | 0.0814
105 | AACGTGCG | 0.0054
106 | ATAAGTGG | 0.0259
107 | ATTCAGGC | 0.106
108 | CCAACCCA | -0.242
109 | ACGACCAT | -0.0998
110 | CCACGGTC | -0.206
111 | GGCGCTAC | -0.314
112 | AAAGGCGA | -0.179
113 | CGGATCGA | -0.0456
114 | ACACGGTG | -0.142
115 | GTGCATCA | 0.129
116 | GGCAGCTA | 0.0336
117 | AGAGCGTC | -0.112
118 | AGGTCAAT | 0.121
119 | CTATATAA | 0.0499
120 | CAGCCAAC | -0.121
121 | CGGACCCA | -0.0998
122 | AGCGGTAT | 0.144
123 | CAGAACTG | 0.162
124 | AATATTCT | 0.0382
125 | AACGTGAG | -0.128

Row | Sequence | PBM E-score
126 | AAGGCAGG | 0.0209
127 | GGTTGAGA | -0.0311
128 | TAAAAAAA | -0.0662
129 | ACTGTACA | -0.188
130 | AGCGTGTC | -0.106
131 | CACGCCGC | -0.171
132 | CGCCGACA | -0.0437
133 | ACTTCTAC | -0.0161
134 | TATCTGGA | -0.00866
135 | CGGTGTGC | -0.226
136 | ACGGCTTG | -0.154
137 | ATTCCTAG | -0.0595
138 | AATATCGA | 0.244
139 | CGCATCCC | -0.174
140 | CTCATATA | 0.029
141 | GTTAAGTA | 0.0775
142 | AAACTATT | -0.0651
143 | GATCCGGC | -0.143
144 | CGCCGGTA | -0.0314
145 | ACGGGCCT | -0.0944
146 | CAGCCGAA | -0.00884
147 | CACGGGAG | -0.095
148 | CGCGAAAC | -0.00328
149 | CGTACGTA | -0.21
150 | AGCGCAGA | 0.00305

As entered above:
AATATTCT – PBM E-score: 0.0382
ACACCAAT – PBM E-score: 0.183
AGGTCAAT – PBM E-score: 0.121
AGAGATGC – PBM E-score: 0.0246
CCAGCTTA – PBM E-score: -0.0886
ATCTCCTC – PBM E-score: 0.0366
CAGTCCAC – PBM E-score: -0.0861

Continued:

Row | Sequence | PBM E-score
151 | GCATTCCA | -0.0929
152 | AAAACTAA | 0.234
153 | ATGGTGAA | -0.0969
154 | CTGATGCA | 0.128
155 | ATGAATCC | 0.13
156 | ATCTTTAG | -0.0408
157 | ACAGCGAT | -0.201
158 | CGATGACC | -0.00928
159 | CGTCCTGC | -0.116
160 | CCGATGAC | -0.096
161 | AGTCGCGC | 0.174
162 | CCACTCGG | -0.123
163 | TATACGCA | 0.136
164 | CAAACAGA | 0.0979
165 | ATTCCGCC | 0.171
166 | CGGCTCCA | -0.114
167 | ACCAATTC | 0.0263
168 | CCAGTGCG | -0.212
169 | CATGTTGC | -0.0978
170 | ATCTAGGA | 0.125
171 | AATAAGGT | 0.0484
172 | ATGATAAG | 0.0805
